Test results reported in publication PMC6208443, “Arabidopsis AGDP1 links H3K9me2 to DNA methylation in heterochromatin” (Nature Communications, 2018).

Amino acid sequences for entries named in this document (tags omitted).
UniProt Q9XFH4: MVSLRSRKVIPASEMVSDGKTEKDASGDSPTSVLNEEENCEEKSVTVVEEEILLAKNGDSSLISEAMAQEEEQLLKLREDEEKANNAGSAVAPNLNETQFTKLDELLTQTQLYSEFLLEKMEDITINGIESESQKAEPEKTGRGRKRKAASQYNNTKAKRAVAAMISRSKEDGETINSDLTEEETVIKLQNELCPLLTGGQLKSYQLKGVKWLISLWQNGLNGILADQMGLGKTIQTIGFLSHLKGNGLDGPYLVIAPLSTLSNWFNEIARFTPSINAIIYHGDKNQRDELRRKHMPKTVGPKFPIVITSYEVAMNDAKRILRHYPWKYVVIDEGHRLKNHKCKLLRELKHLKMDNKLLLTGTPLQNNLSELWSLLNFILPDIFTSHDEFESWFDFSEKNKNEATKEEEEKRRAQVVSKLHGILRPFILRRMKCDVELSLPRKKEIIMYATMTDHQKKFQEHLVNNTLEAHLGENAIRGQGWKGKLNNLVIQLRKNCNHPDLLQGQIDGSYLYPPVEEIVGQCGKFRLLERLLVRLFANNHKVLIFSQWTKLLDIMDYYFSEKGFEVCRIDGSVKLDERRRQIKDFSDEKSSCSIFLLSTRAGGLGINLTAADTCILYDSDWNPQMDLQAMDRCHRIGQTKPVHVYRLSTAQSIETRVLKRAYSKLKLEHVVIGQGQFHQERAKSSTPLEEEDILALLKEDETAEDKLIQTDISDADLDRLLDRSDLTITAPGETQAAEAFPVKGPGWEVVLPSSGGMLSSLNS

Molecular target: T1, Flag-AGDP1 (Arabidopsis thaliana) (UniProt Q500V5)
T1 sequence: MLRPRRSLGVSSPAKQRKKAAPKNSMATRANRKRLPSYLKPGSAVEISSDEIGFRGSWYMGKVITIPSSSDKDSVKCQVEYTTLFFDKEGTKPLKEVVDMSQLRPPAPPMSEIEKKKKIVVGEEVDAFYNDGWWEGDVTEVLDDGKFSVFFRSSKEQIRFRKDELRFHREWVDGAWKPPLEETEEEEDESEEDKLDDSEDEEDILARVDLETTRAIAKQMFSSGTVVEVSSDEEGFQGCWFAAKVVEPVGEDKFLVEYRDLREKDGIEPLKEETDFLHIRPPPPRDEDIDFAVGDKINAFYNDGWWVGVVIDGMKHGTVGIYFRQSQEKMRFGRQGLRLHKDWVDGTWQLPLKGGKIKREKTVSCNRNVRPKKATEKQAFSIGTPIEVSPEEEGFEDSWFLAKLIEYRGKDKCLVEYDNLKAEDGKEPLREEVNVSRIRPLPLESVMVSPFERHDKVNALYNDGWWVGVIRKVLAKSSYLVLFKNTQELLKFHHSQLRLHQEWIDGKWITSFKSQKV
Test: affinity purification with mass spectrometry; immunoprecipitation of Flag-AGDP1 from pAGDP1-Flag-AGDP1 transgenic plants followed by mass spectrometry (IP-MS), four replicates

In the case of DDM1 (from UniProt Q9XFH4 1-764), the binding is reported as “no binding”.

No constants are given. Whether binding was seen depends on the method and setting. Binding seen in cells or lysates may run through a third protein. A yes stands for co-enrichment or nearness to the bait. Other partners may have been found. A no says only that the protein was not detected with the bait. Where a sequence is shown, tags or fusion partners need not be part of it.
